Assay results taken from article PMC12508185.
No constants are given. Whether binding was seen depends on the method and setting. In cells and extracts the contact can be indirect. A yes stands for co-enrichment or nearness to the bait. Other partners may have been found. Where a sequence is shown, tags or fusion partners need not be part of it.

T1: SRAS1.1-His fusion protein (Arabidopsis thaliana) (UniProt Q9FKX5)
T1 sequence: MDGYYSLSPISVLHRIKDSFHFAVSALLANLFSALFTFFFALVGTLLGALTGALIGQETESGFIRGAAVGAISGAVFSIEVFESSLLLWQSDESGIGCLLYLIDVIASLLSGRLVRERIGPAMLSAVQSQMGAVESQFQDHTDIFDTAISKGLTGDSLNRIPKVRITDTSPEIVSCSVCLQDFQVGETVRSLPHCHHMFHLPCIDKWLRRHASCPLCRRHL

B1: DSK2A (DOMINANT SUPPRESSOR OF KAR 2A), endogenous (protein, UniProt Q9SII9 1-538)
chain: MGGEADSRQPLTAEGVAVAVNVRCSNGTKFSVTTSLDSTVESFKELIAQNSDVPANQQRLIYKGRILKDDQTLLSYGLQADHTVHMVRGFVPSSPSAPAANAGNQTTAPQAVGSNDSSNLGGGESLFPGLGFNPLGGGNAMAGLFGSGLPDLEQAQQQLAQNPNMIREMMNTPAIQNLMNNPEFMRSMIMNNPQMRELVDRNPELGHVLNDPSILRQTLEAARNPELMREMMRNTDRAMSNIESMPEGFNMLRRMYENVQEPLMNATTMSENAGNNTSSNPFAALLGNQGVTTQGSDTSNNISAPNAETGTPNANPLPNPWGATAGQTTAPGRTNAGLGGLGGLGGLGGLGMLGADSPLGATPDASQLSQILQNPAMSQMMQSVLSNPQYMNQLMSLNPQLRSMLDMNPQLREMMQNPDFLRQFSSPEMMQQMMSLQQSLFSQNRNTAGQDPTQTGAATGTANNGGLDLLMNMFGSLGAGGLSGTNQPNVPPEERFATQLQQLQEMGFYDRAENIRALLATNGNVNAAVERLLGSIGQ
B2: DSK2B, endogenous (protein, UniProt Q9SII8 1-551)
chain: MGGEGDSSQPQSGEGEAVAVNIRCSNGTKFSVKTSLDSTVESFKELVAQSSDVPANQQRLIYKGRILKDDQTLLSYGLQADHTIHMVRGSAPSSAPPPAPAASQTTAPSVTRGVGSDNSSNLGGASPGESLFPGLGFNPLGGGNAMSGLFGAGLPDLVQTQQQLAQNPNMIRDMMNTPAIQNLMNNPEFMRSMIMNNPQMRELVDRNPELGHVLNDPSILRQTLEAARNPELMREMMRNTDRAMSNIESMPEGFNMLRRMYENVQEPLMNATTMSGNAGNNTGSNPFAALLGNQGVTTQGSDASNNSSTPNAGTGTIPNANPLPNPWGATGGQTTAPGRTNVGGDARSPGLGGLGGLGSLGGLGGLGMLGADSPLGATPDASQLSQLLQNPAISQMMQSVFSNPQYMNQLMSLNPQLRSMLDSNPQLREMMQNPDFLRQFSSPEMMQQMMTLQQSLSQNRNTASQDAGQTGAATGNNGGLDLLMNMFGSLGAGGLSGTNQSNVPPEERYATQLQQLQEMGFYDRAENIRALLATNGNVNAAVERLLGSIGQ

Target: T1, SRAS1.1-His fusion protein (Arabidopsis thaliana)
Assay: affinity purification with mass spectrometry; SRAS1.1-His fusion protein incubated with total protein of 7-day-old wild-type seedlings with and without 250 mM mannitol; lysis buffer 50 mM Tris-HCl pH 7.5, 150 mM NaCl, 1% Triton X-100, 5 mM EDTA; agarose beads coupled with anti-His antibody, overnight at 4 °C; LC-MS/MS of the gel sample; only the target purified

| Binder | binding |
| --- | --- |
| B1 | binds |
| B2 | binds |
